Results deposited as PubChem BioAssay AID1053208 (Peter MacCallum Cancer Centre, 2014)
The whole screen tested about 17,000 reagents; this is an unselected part. Over the whole deposit, 788 (4.7%) were called active. 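Calls rest on z-score classes alone; an extra cut-off of viability at most 70% of control was not applied to them.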 Unmarked entries are inactive. No sequences are given here.

- Screen: 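Genes whose silencing cuts survival of bone tumour cells only with doxorubicin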 (primary screen)
- Cells: mouse osteosarcoma cells, early-passage culture from an engineered mouse model of fibroblastic bone tumour
- Knock-down reagent: siRNA pool against mouse genes, 40 nM
- Time to read-out: about 120 h (48 h before drug, then 72 h with drug)
- Conditions: doxorubicin 100 nM for 72 h, roughly 30-40% inhibitory dose
- Read-out: 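Luminescent ATP signal taken as viability with or without 100 nM doxorubicin for 72 h; mean of two wells set against non-targeting siRNA and turned into robust z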
- Direction: viability z-score with doxorubicin and doxorubicin viability vs non-targeting: higher = more viable cells under doxorubicin; viability z-score without drug: higher = more viable cells with knock-down alone; z-score of drug to no-drug ratio: higher = less drug sensitisation by knock-down
- Rule for the call: 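Called active if knock-down leaves viability unchanged without drug (z within -2 to 2) but lowers it with doxorubicin (z at or under -2)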

| target | PubChem SID | combined z-score class | viability z-score with doxorubicin | viability z-score without drug | z-score of drug to no-drug ratio | doxorubicin viability vs non-targeting |
| --- | --- | --- | --- | --- | --- | --- |
| Hdac11 | SID152275983 | no change with or without drug | -0.34 | 0.84 | -0.79 | 0.91 |
| Ptpa | SID152314931 | no change with or without drug | 0.9 | 1.35 | 0.11 | 1.02 |
| Nav2 | SID152300339 | high cell count without drug only | 0 | 2.7 | -1.46 | 0.94 |
| Drc11l | SID152315593 | no change with or without drug | -0.67 | 0.84 | -1.12 | 0.88 |
| Col6a2 | SID152283023 | high cell count with doxorubicin only | 2.92 | 0.34 | 2.92 | 1.2 |
| Cyp11b2 | SID152289127 | no change with or without drug | -0.56 | -0.67 | 0 | 0.89 |
| Gm56926 | SID152281418 | high cell count with and without drug | 2.59 | 2.36 | 1.01 | 1.17 |
| Mrpl57 | SID152309128 | no change with or without drug | 0 | -1.18 | 1.01 | 0.94 |
| Fbxo38 | SID152317226 | no change with or without drug | 0.11 | -0.84 | 0.9 | 0.95 |
| Or51a25 | SID152309337 | no change with or without drug | 1.57 | 0.84 | 1.12 | 1.08 |
| Krt10 | SID152300669 | no change with or without drug | -0.22 | -0.51 | 0.22 | 0.92 |
| Sdhd | SID152303521 | no change with or without drug | -0.45 | -1.35 | 0.56 | 0.9 |
| Setd3 | SID152263061 | no change with or without drug | -0.45 | -0.51 | 0 | 0.9 |
| Spink5 | SID152262245 | no change with or without drug | 0.22 | 0.34 | 0.11 | 0.96 |
| Max | SID152284188 | no change with or without drug | 0 | -0.84 | 0.67 | 0.94 |
| Sf3b5 | SID152337865 | low cell count with doxorubicin only (active) | -3.37 | -0.51 | -3.15 | 0.64 |
| Csrnp1 | SID152310946 | no change with or without drug | -0.9 | -1.01 | -0.11 | 0.86 |
| Tcp11l1 | SID152326296 | low cell count with doxorubicin only (active) | -2.92 | -1.35 | -2.25 | 0.68 |
| Cts3 | SID152261276 | no change with or without drug | 1.12 | 0.51 | 0.9 | 1.04 |
| D830013H23Rik | SID152281899 | no change with or without drug | 0 | 1.35 | -0.79 | 0.94 |
| Fgf4 | SID152340061 | no change with or without drug | -1.12 | -0.51 | -0.79 | 0.84 |
| Ar | SID152319907 | no change with or without drug | 0.45 | 0.84 | 0 | 0.98 |
| Mrps28 | SID152333243 | no change with or without drug | -1.46 | 0.34 | -1.57 | 0.81 |
| Ccl5 | SID152338813 | no change with or without drug | -0.67 | 0.34 | -0.79 | 0.88 |
| Tmeff1 | SID152260774 | high cell count with doxorubicin only | 2.25 | 1.85 | 1.12 | 1.14 |
| Slc26a4 | SID152311739 | no change with or without drug | -0.11 | -1.18 | 0.9 | 0.93 |
| Atp7b | SID152333124 | no change with or without drug | -0.34 | 1.18 | -1.01 | 0.91 |
| Tomm40 | SID152284953 | low cell count without drug only | -0.67 | -2.19 | 1.01 | 0.88 |
| Hdac8 | SID152312783 | no change with or without drug | 0.67 | -0.84 | 1.46 | 1 |
| Prkcg | SID152316924 | high cell count with and without drug | 2.02 | 2.7 | 0.34 | 1.12 |
| Prkci | SID152342382 | no change with or without drug | 0 | 0 | 0.11 | 0.94 |
| Gnb4 | SID152297679 | high cell count without drug only | 0.67 | 2.87 | -1.01 | 1 |
| Or5p72 | SID152310404 | no change with or without drug | -1.8 | -1.85 | -0.56 | 0.78 |
| Scnn1b | SID152342474 | no change with or without drug | -0.45 | 0.51 | -0.67 | 0.9 |
| Egfr | SID152302885 | no change with or without drug | -0.11 | -0.67 | 0.45 | 0.93 |
| F2rl3 | SID152271710 | no change with or without drug | -0.34 | -1.18 | 0.56 | 0.91 |
| Tle4 | SID152304668 | no change with or without drug | 0.22 | 0.17 | 0.22 | 0.96 |
| Tbc1d15 | SID152260412 | no change with or without drug | 1.24 | 1.35 | 0.45 | 1.05 |
| Zfp397 | SID152337210 | low cell count without drug only | -0.22 | -3.54 | 2.92 | 0.92 |
| Styxl1 | SID152304462 | no change with or without drug | 0 | 0.17 | 0 | 0.94 |
| Isyna1 | SID152310096 | no change with or without drug | -0.67 | -0.51 | -0.22 | 0.88 |
| Slc16a12 | SID152315220 | no change with or without drug | -0.67 | 0.17 | -0.67 | 0.88 |
| Poc5 | SID152272968 | no change with or without drug | 0.67 | 1.18 | 0 | 1 |
| Krt76 | SID152312254 | no change with or without drug | -0.11 | 0.67 | -0.45 | 0.93 |
| Tpp1 | SID152340599 | no change with or without drug | 0.22 | 0.84 | -0.22 | 0.96 |
| Or2y6 | SID152319576 | no change with or without drug | 1.12 | 1.85 | 0 | 1.04 |
| Tmem70 | SID152297981 | no change with or without drug | 1.35 | 0.84 | 0.9 | 1.06 |
| Or10aa3 | SID152292199 | no change with or without drug | 0.67 | 0.17 | 0.67 | 1 |
| Vhl | SID152317452 | no change with or without drug | 0 | -0.51 | 0.45 | 0.94 |
| Zpbp2 | SID152305689 | no change with or without drug | 0.11 | 1.85 | -0.9 | 0.95 |
| Phax | SID152311143 | no change with or without drug | -1.46 | -0.51 | -1.12 | 0.81 |
| Ankrd42 | SID152277616 | no change with or without drug | 0.22 | 1.69 | -0.79 | 0.96 |
| Adam28 | SID152282784 | no change with or without drug | -0.22 | -0.51 | 0.22 | 0.92 |
| Thumpd1 | SID152328937 | no change with or without drug | 0.67 | -1.18 | 1.8 | 1 |
| Sirt5 | SID152319775 | no change with or without drug | -0.45 | 0 | -0.34 | 0.9 |
| Csk | SID152319748 | high cell count without drug only | -0.45 | 3.2 | -2.14 | 0.9 |
| 1700084P21Rik | SID152303068 | no change with or without drug | 1.12 | 1.85 | 0 | 1.04 |
| Mospd3 | SID152296336 | no change with or without drug | -1.57 | -1.85 | -0.34 | 0.8 |
| Mtif2 | SID152281026 | no change with or without drug | -0.67 | -0.51 | -0.22 | 0.88 |
| Slc6a17 | SID152318770 | no change with or without drug | 0.67 | 0.84 | 0.22 | 1 |
| Gtf3c2 | SID152310062 | no change with or without drug | -0.45 | -1.01 | 0.34 | 0.9 |
| Vmn1r183 | SID152288857 | low cell count with doxorubicin only (active) | -2.59 | 1.01 | -3.15 | 0.71 |
| Chchd5 | SID152319965 | no change with or without drug | 0 | -0.17 | 0.22 | 0.94 |

As entered above.
Phax [SID152311143], viability z-score with doxorubicin = -1.46
Gm56926 [SID152281418], viability z-score without drug → 2.36
Under “doxorubicin viability vs non-targeting”, Or2y6 [SID152319576] has 1.04
Prkcg [SID152316924], combined z-score class: high cell count with and without drug
Result of Mtif2 [SID152281026] under “viability z-score with doxorubicin”: -0.67
Slc16a12 [SID152315220], viability z-score without drug = 0.17
